Results as given in PubChem BioAssay AID588497 (NMMLSC, 2011).
The whole screen tested about 360,000 compounds, of which about 780 (0.22%) were called active. This list was built around the results that the source calls inconclusive (neither active nor inactive); the mix of calls is not that of the screen. Rule as the data show it: active = inhibition above about 35% (passing the limit was not always enough); inconclusive = no clear call, values can overlap the other calls.

These molecules were tested on Botulinum neurotoxin type F light chain protease (Clostridium botulinum) (assay: BoNT/F light chain protease inhibitors, primary screen, biochemical, flow cytometry, MLPCN library (AID 588497; also: plate controls were buffer without enzyme for full effect and enzyme alone for no effect)). Conditions: Multiplex microsphere protease cleavage assay, at 10 µM, stronger effect = higher value.

SMILES	inhibition
O=C(NCC1CCCO1)c1ccc2c(c1)N(Cc1ccc(Cl)cc1)CCS2 (stereo not given)	inactive: -5.6%
C=CCOC(=O)C1=C(C)NC(C)=C(C(=O)OCC=C)C1c1cn(-c2ccccc2)nc1-c1ccco1	inactive: -7.5%
CCOc1ccc(Nc2nc3c(C)cccc3cc2C#N)cc1	inconclusive: 15.3%
Cc1cc(=O)[nH]c2c1c(=O)[nH]n2C1CC(C)N(C)CC1C (stereo not given)	inconclusive: 14.5%
CC1(C)Cc2ccccc2-c2nnc(-c3ccc(O)cc3)n21	inactive: 6.4%
Cc1ccc(N(C(=O)Cn2nnc(-c3ccc(C)o3)n2)C(C(=O)NC2CCCC2)c2ccco2)cc1 (stereo not given)	inactive: -2.7%
Cc1cc(Br)ccc1NC(=S)N1CCOCC1	inconclusive: 51.2%
CSc1ccc(/C=N/n2c(C)cc(C)cc2=O)cc1	inactive: -4.6%
COc1ccc(Cl)cc1NC(=O)CSc1nnc(-c2ccco2)o1	inconclusive: -6.4%
CCCCNS(=O)(=O)c1ccc2nc(-c3cccnc3)cc(C(=O)NCCOC)c2c1	inactive: -8.5%
Cc1ccc(S(=O)(=O)N2CCOCC2)cc1NC(=O)COC(=O)CCc1c[nH]c2ccccc12	inactive: -5.3%
c1ccc(Cc2nnc3sc(-c4cccnc4)nn23)cc1	inactive: -4.7%
Cc1c(CC(=O)NCCCC(=O)O)c(=O)oc2cc3occ(-c4ccccc4)c3cc12	inactive: 1.7%
Cc1c(C(C)CCCO)oc(=O)c2c1Oc1c(C)c(C(C)C[C@H](C)O)oc(=O)c1C2 (stereo not given in full)	inactive: -1.9%
CCCC(=O)Nc1nnc(SCC(=O)NCc2ccc3c(c2)OCO3)s1	active: 39.5%
CCOC(=O)C1CCN(C(=O)Nc2ccc(OC(F)(F)F)cc2)CC1	inconclusive: 30.7%
COc1ccc2c(c1)-c1ccccc1S(=O)(=O)N2C(C)=O	inactive: -20.2%
COc1ccc(NC(=O)C#Cc2ccccc2)cc1OC	inactive: -9.3%
O=C1c2ccccc2C(=O)N1CCn1ccnc1	active: 40.7%
CS(=O)(=O)NCCCNc1ccc(C(F)(F)F)cc1[N+](=O)[O-]	inactive: -0.2%
CC1CCc2cc(F)ccc2N1C(=O)CSc1nnc2c(n1)[nH]c1ccccc12 (stereo not given)	inactive: 0.3%
Cc1c(NC(=O)CN2C(=O)c3ccccc3S2(=O)=O)c(=O)n(-c2ccccc2)n1C	inconclusive: -16.8%
O=c1nc(-c2ccccc2)c2cc(SC(F)F)ccc2[nH]1	inconclusive: -8%
C=CCOc1ccc(CN(C)C(=O)c2ccc(CNS(=O)(=O)c3ccc(C)c(C)c3)cc2)cc1	inactive: 0%
CC1(C)CC(=O)C=C(Nc2cccc(Cl)c2Cl)C1	inconclusive: -5.8%

Look-ups from above:
Entry of `CSc1ccc(/C=N/n2c(C)cc(C)cc2=O)cc1` under inhibition: inactive: -4.6%
Entry of `CCCC(=O)Nc1nnc(SCC(=O)NCc2ccc3c(c2)OCO3)s1` under inhibition: active: 39.5%
